The values below come from PMC3096577.

No constants are given. Whether binding was seen depends on the method and setting. In cells and extracts the contact can be indirect. Binding can be weak; no strength is given.

The target in this assay is T1, FlbD (C. crescentus (endogenous in LS107 and JG1172)) (UniProt P17899).
T1 sequence: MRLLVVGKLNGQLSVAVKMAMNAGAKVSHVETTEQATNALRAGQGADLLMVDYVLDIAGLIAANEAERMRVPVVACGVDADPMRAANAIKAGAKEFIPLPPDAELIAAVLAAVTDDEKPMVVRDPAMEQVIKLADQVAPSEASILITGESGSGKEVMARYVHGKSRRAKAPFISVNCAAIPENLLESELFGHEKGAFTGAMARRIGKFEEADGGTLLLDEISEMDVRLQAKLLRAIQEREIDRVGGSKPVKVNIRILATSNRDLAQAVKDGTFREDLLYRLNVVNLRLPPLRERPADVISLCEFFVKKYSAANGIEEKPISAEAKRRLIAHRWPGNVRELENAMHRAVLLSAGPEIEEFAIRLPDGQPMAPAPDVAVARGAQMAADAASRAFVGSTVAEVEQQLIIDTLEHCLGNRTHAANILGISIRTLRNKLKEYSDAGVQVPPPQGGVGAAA
The experiment in a line: co-IP; pre-cleared extracts of JG1172 cells expressing fliX alleles incubated overnight with Agarose-Protein A-anti-FlbD complexes; immunoblot with anti-FliX antibodies. Background: A western blot detects proteins with antibodies after separation by electrophoresis.
Turning to FliX_(R71A) (C. crescentus), the binding entry is recorded as “binds”.
Next, FliX_(L136K) (C. crescentus): “binds”; FliX_(T130L) (C. crescentus): “binds”.
Next, FliX_(Δ117-118) (C. crescentus): “binds weakly”; wild-type FliX (C. crescentus): “binds”.
